Results are given in words; binding and its absence hold for the method and conditions named. Binding seen in cells or lysates may run through a third protein. A yes stands for co-enrichment or nearness to the bait. Other partners may have been found.
Biological target: β-catenin (mouse (endogenous in TKO HCC cells)) (UniProt Q02248)
Experiment: affinity purification with mass spectrometry; IP of β-catenin from TKO HCC cells (CTRL and shEcad2), SDS-PAGE, tryptic digest, LC-MS/MS on LTQ Orbitrap Elite

By UniProt entry, the sequences of proteins in these tests, tags left out. Residues count along the entry.
UniProt Q02248: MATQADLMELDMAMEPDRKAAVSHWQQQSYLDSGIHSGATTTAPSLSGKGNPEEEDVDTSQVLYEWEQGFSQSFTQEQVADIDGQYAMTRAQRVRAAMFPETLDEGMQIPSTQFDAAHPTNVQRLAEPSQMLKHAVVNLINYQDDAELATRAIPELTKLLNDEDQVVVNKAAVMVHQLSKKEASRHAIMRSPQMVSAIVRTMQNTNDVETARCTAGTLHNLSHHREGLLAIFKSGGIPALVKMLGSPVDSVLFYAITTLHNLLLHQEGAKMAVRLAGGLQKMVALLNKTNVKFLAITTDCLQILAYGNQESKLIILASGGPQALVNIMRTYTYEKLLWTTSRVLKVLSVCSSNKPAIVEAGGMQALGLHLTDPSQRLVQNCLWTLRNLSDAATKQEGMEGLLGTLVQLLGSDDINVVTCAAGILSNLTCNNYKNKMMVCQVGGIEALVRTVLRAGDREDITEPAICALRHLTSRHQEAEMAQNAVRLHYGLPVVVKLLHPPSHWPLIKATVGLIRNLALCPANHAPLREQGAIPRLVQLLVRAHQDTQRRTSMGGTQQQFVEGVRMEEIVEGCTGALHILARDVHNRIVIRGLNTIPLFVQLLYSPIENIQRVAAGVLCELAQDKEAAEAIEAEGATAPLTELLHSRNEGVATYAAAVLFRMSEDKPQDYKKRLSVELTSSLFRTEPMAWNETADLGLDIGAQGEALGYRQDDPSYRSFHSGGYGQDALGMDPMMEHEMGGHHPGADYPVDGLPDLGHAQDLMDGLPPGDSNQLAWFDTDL
UniProt P15116, residues 160-906: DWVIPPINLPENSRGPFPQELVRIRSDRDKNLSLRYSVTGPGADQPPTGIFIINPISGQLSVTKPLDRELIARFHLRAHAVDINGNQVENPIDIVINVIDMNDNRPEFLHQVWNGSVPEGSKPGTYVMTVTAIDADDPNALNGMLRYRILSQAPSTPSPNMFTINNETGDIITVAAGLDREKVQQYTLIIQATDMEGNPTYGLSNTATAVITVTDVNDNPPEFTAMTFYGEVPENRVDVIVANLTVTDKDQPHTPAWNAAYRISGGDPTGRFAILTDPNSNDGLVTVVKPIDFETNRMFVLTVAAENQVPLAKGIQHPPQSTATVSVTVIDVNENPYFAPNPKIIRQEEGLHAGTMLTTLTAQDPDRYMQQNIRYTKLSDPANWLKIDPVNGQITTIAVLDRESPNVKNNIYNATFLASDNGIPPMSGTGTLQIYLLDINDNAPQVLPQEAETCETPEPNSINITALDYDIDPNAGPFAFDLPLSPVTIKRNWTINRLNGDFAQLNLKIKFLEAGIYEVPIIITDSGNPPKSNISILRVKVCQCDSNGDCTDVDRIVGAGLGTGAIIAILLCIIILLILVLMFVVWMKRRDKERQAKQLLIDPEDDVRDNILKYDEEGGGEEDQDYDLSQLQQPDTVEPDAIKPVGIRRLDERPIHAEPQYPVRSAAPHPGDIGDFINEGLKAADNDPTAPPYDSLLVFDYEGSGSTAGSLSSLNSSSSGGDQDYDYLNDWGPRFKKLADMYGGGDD

“N-cadherin (from UniProt P15116 160-906)” was tested, and the binding was “binds”.
